According to PMC7788704:
These are yes or no findings as the source states them, for the method shown. Binding seen in cells or lysates may run through a third protein. Some entries that bind do so weakly or less than the wild type.

Target: T1, Flavin-containing monooxygenase 5 (human (endogenous in L02)) (UniProt P49326)
T1 sequence: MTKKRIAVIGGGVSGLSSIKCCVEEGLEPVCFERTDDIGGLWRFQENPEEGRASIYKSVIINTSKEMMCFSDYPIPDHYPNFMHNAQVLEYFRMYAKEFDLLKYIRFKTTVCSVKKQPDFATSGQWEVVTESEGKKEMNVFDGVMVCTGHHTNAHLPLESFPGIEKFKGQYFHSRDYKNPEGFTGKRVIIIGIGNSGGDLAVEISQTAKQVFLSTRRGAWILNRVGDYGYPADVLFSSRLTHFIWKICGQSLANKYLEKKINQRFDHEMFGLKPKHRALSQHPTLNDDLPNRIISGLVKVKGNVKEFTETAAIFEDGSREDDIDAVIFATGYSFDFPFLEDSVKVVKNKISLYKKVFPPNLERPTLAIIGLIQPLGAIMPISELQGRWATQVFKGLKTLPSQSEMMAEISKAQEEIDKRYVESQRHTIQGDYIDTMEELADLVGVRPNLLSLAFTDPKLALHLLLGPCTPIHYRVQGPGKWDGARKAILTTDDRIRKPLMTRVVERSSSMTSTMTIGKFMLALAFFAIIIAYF
Assay: co-IP; anti-Fmo5 coupled to protein A-Sepharose beads in RIPA buffer overnight at 4 °C, added to L02 cell lysate for 2 h at 4 °C; IP samples blotted for Fmo5 and PPARα

binding: binds
B1: PPARα (protein, UniProt Q07869 1-468)
chain: MVDTESPLCPLSPLEAGDLESPLSEEFLQEMGNIQEISQSIGEDSSGSFGFTEYQYLGSCPGSDGSVITDTLSPASSPSSVTYPVVPGSVDESPSGALNIECRICGDKASGYHYGVHACEGCKGFFRRTIRLKLVYDKCDRSCKIQKKNRNKCQYCRFHKCLSVGMSHNAIRFGRMPRSEKAKLKAEILTCEHDIEDSETADLKSLAKRIYEAYLKNFNMNKVKARVILSGKASNNPPFVIHDMETLCMAEKTLVAKLVANGIQNKEAEVRIFHCCQCTSVETVTELTEFAKAIPGFANLDLNDQVTLLKYGVYEAIFAMLSSVMNKDGMLVAYGNGFITREFLKSLRKPFCDIMEPKFDFAMKFNALELDDSDISLFVAAIICCGDRPGLLNVGHIEKMQEGIVHVLRLHLQSNHPDDIFLFPKLLQKMADLRQLVTEHAQLVQIIKKTESDAALHPLLQEIYRDMY
